Laboratory results: PMC12162868

B1: human DYK-tagged M1AP (meiosis 1-associated protein), full-length wild type (protein, UniProt Q8TC57-1 1-530)
chain: MHPGRTTGKGPSTHTQIDQQPPRLLIVHIALPSWADICTNLCEALQNFFSLACSLMGPSRMSLFSLYMVQDQHECILPFVQVKGNFARLQTCISELRMLQREGCFRSQGASLRLAVEDGLQQFKQYSRHVTTRAALTYTSLEITILTSQPGKEVVKQLEEGLKDTDLARVRRFQVVEVTKGILEHVDSASPVEDTSNDESSILGTDIDLQTIDNDIVSMEIFFKAWLHNSGTDQEQIHLLLSSQCFSNISRPRDNPMCLKCDLQERLLCPSLLAGTADGSLRMDDPKGDFITLYQMASQSSASHYKLQVIKALKSSGLCESLTYGLPFILRPTSCWQLDWDELETNQQHFHALCHSLLKREWLLLAKGEPPGPGHSQRIPASTFYVIMPSHSLTLLVKAVATRELMLPSTFPLLPEDPHDDSLKNVESMLDSLELEPTYNPLHVQSHLYSHLSSIYAKPQGRLHPHWESRAPRKHPCKTGQLQTNRARATVAPLPMTPVPGRASKMPAASKSSSDAFFLPSEWEKDPSRP
B2: truncated human DYK-tagged M1AP Q108* (c.322C>T p.Gln108Ter) (domain or fragment, UniProt Q8TC57-1 1-107)
chain: MHPGRTTGKGPSTHTQIDQQPPRLLIVHIALPSWADICTNLCEALQNFFSLACSLMGPSRMSLFSLYMVQDQHECILPFVQVKGNFARLQTCISELRMLQREGCFRS
B3: truncated human DYK-tagged M1AP C335* (c.1005T>A p.Cys335Ter) (domain or fragment, UniProt Q8TC57-1 1-334)
chain: MHPGRTTGKGPSTHTQIDQQPPRLLIVHIALPSWADICTNLCEALQNFFSLACSLMGPSRMSLFSLYMVQDQHECILPFVQVKGNFARLQTCISELRMLQREGCFRSQGASLRLAVEDGLQQFKQYSRHVTTRAALTYTSLEITILTSQPGKEVVKQLEEGLKDTDLARVRRFQVVEVTKGILEHVDSASPVEDTSNDESSILGTDIDLQTIDNDIVSMEIFFKAWLHNSGTDQEQIHLLLSSQCFSNISRPRDNPMCLKCDLQERLLCPSLLAGTADGSLRMDDPKGDFITLYQMASQSSASHYKLQVIKALKSSGLCESLTYGLPFILRPTS
B4: truncated human DYK-tagged M1AP L433* (c.1297C>T, c.1298T>A p.Leu433Ter) (domain or fragment, UniProt Q8TC57-1 1-432)
chain: MHPGRTTGKGPSTHTQIDQQPPRLLIVHIALPSWADICTNLCEALQNFFSLACSLMGPSRMSLFSLYMVQDQHECILPFVQVKGNFARLQTCISELRMLQREGCFRSQGASLRLAVEDGLQQFKQYSRHVTTRAALTYTSLEITILTSQPGKEVVKQLEEGLKDTDLARVRRFQVVEVTKGILEHVDSASPVEDTSNDESSILGTDIDLQTIDNDIVSMEIFFKAWLHNSGTDQEQIHLLLSSQCFSNISRPRDNPMCLKCDLQERLLCPSLLAGTADGSLRMDDPKGDFITLYQMASQSSASHYKLQVIKALKSSGLCESLTYGLPFILRPTSCWQLDWDELETNQQHFHALCHSLLKREWLLLAKGEPPGPGHSQRIPASTFYVIMPSHSLTLLVKAVATRELMLPSTFPLLPEDPHDDSLKNVESMLDS

These binders were tested against human HA-tagged TEX11, full-length wild type (human) (assay: co-IP; co-transfected HEK293T lysates (25 mM Tris-HCl pH 7.4, 150 mM NaCl, 10 mM EDTA, 1% NP-40, 5% glycerol); magnetic anti-HA tag beads hold HA-SHOC1 or HA-TEX11, 30 min at RT; DYK-M1AP detected by Western blot).
B1 was tested, and the binding was “binds”. With B2 the binding was “no binding”. B3 was tested, and the binding was “no binding”. For B4, the binding was “no binding”.

Results are given in words; binding and its absence hold for the method and conditions named. In cells and extracts the contact can be indirect. A result given as binding can be weak or reduced; the word gives no strength. Tags and fused reporters may be left off the sequences shown.
